# Data: publication PMC11290222
# By UniProt entry, the sequences of proteins in these tests, tags left out.
# UniProt P83949: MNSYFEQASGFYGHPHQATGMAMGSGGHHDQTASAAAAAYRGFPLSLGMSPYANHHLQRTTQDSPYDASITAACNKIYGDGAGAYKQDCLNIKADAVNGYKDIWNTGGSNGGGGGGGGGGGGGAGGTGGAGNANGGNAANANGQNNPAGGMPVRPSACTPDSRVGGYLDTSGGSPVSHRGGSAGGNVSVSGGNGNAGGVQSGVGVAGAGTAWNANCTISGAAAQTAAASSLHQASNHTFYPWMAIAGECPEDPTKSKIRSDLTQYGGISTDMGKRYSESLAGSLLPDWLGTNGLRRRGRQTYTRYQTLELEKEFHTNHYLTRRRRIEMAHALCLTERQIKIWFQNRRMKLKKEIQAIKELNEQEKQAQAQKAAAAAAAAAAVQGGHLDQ
# UniProt P02833: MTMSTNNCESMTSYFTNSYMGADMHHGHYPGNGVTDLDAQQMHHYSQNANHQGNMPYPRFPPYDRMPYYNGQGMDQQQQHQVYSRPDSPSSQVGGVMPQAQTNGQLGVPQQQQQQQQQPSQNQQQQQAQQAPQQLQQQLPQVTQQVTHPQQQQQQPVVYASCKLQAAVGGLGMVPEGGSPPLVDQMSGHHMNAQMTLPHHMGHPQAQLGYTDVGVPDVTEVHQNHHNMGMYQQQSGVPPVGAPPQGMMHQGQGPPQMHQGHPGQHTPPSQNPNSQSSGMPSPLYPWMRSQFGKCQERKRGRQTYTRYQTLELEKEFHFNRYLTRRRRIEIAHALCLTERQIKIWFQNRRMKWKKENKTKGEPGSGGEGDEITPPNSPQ
# These are yes or no findings as the source states them, for the method shown. In cells and extracts the contact can be indirect. Some results given as binding are weak or reduced against the parent protein; the word gives no strength.
# Target: Ubx full-length fused to VN, expressed in transgenic flies (UAS-VNUbx) (Drosophila) (UniProt P83949)
# Assay: split reporter; BiFC in Drosophila embryos (nullo-, antp-, ptc-Gal4) and imaginal discs (dll-Gal4), UAS/Gal4 co-expression; crosses at 25 °C overnight, embryos 48 h at 4 °C before visualisation
substance,measurement,value
"Antp full-length fused to VC, expressed in transgenic flies (UAS-VCAntp) (from UniProt P02833 1-378)",binding,binds
